This passage reports binding results from paper PMC10469627, “Molecular basis of the glycosomal targeting of PEX11 and its mislocalization to mitochondrion in trypanosomes” (Frontiers in Cell and Developmental Biology, 2023).

Assay in all cases: two-hybrid; GAL4 BD-HsPEX11 N-terminal constructs (pPC97) and GAL4 AD-HsPEX19 (pPC86) co-transformed in Δpex19 PCY2; colony-lift filter assay and liquid ONPG assay, three replicates; ScPEX14-ScPEX17 as positive control
Assay [1] concerns the target T1, GAL4 BD-HsPEX11_(1-73aa) (PEX11β) (human) (UniProt O96011).
T1 sequence: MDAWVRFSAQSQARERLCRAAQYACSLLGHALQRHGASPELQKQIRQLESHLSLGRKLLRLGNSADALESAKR

Assay [2] has as its target T2, GAL4 BD-HsPEX11_(1-73aa) (PEX11α) (human) (UniProt O75192).
T2 sequence: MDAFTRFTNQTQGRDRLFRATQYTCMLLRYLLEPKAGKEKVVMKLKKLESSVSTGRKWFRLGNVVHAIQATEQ

Assay [3] concerns the target T3, GAL4 BD-ScPEX17_(167-199aa) (S. cerevisiae) (UniProt P40155).
T3 sequence: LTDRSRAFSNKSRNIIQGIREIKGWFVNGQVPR

These are yes or no findings as the source states them, for the method shown. Some results given as binding are weak or reduced against the parent protein; the word gives no strength. Sequences can lack the tags named with a protein.

B1: GAL4 AD-HsPEX19 (protein, UniProt P40855 1-299)
chain: MAAAEEGCSVGAEADRELEELLESALDDFDKAKPSPAPPSTTTAPDASGPQKRSPGDTAKDALFASQEKFFQELFDSELASQATAEFEKAMKELAEEEPHLVEQFQKLSEAAGRVGSDMTSQQEFTSCLKETLSGLAKNATDLQNSSMSEEELTKAMEGLGMDEGDGEGNILPIMQSIMQNLLSKDVLYPSLKEITEKYPEWLQSHRESLPPEQFEKYQEQHSVMCKICEQFEAETPTDSETTQKARFEMVLDLMQQLQDLGHPPKELAGEMPPGLNFDLDALNLSGPPGASGEQCLIM
For B1, the binding result in assay [1] is reported as “binds”; in assay [2], “no binding”.

B2: GAL4 AD-ScPEX14 (protein, UniProt P53112 1-341)
chain: MSDVVSKDRKALFDSAVSFLKDESIKDAPLLKKIEFLKSKGLTEKEIEIAMKEPKKDGIVGDEVSKKIGSTENRASQDMYLYEAMPPTLPHRDWKDYFVMATATAGLLYGAYEVTRRYVIPNILPEAKSKLEGDKKEIDDQFSKIDTVLNAIEAEQAEFRKKESETLKELSDTIAELKQALVQTTRSREKIEDEFRIVKLEVVNMQNTIDKFVSDNDGMQELNNIQKEMESLKSLMNNRMESGNAQDNRLFSISPNGIPGIDTIPSASEILAKMGMQEESDKEKENGSDANKDDNAVPAWKKAREQTIDSNASIPEWQKNTAANEISVPDWQNGQVEDSIP
With B2, the binding result in assay [3] was “binds”.
